Experimental data: PubChem BioAssay AID1224830 (NIAID, 2016)
Assay: 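Genes whose knock-down alters the TNF-alpha reporter response to LPS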 (primary screen). Cells: human THP-1 monocytic leukaemia cells, TNF dual-luciferase reporter clone, PMA-differentiated to macrophage-like cells. Knock-down reagent: siRNA pool against human genes, 50 nM. Duration: LPS for 4 h, given about 3 days after siRNA transfection. Challenge: bacterial LPS (TLR4 ligand), 10 ng/ml. Measurement: 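Ratio of firefly to renilla light, scaled to the plate median and expressed as a robust z-score per replicate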. Reading the numbers: TNF reporter robust z-score: higher = stronger TNF reporter response to LPS. Rule for the call: 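Each well counts as active if its z-score is over 2.8 or under -1.5; controls are left without a call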.
The deposit covers about 18,000 reagents; below is a part drawn at random. About 2,900 of all reagents (16%) were called active. 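Calls are made per well; low scores hint the gene aids the LPS response, high scores that it dampens it.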 Unmarked entries are inactive. Repeated entries: four replicate wells of each siRNA pool.

| target gene | TNF reporter robust z-score |
| --- | --- |
| IDH1 (isocitrate dehydrogenase (NADP(+)) 1) | 0.57 |
| IDH1 (isocitrate dehydrogenase (NADP(+)) 1) | 1.91 |
| IDH1 (isocitrate dehydrogenase (NADP(+)) 1) | 0.6 |
| IDH1 (isocitrate dehydrogenase (NADP(+)) 1) | 1.39 |
| CLEC2L (C-type lectin domain family 2 member L) | 0.73 |
| CLEC2L (C-type lectin domain family 2 member L) | 1.42 |
| CLEC2L (C-type lectin domain family 2 member L) | 1.07 |
| CBLN4 (cerebellin 4 precursor) | -1.38 |
| CBLN4 (cerebellin 4 precursor) | -1.37 |
| CBLN4 (cerebellin 4 precursor) | -1.04 |
| UBIAD1 (UbiA prenyltransferase domain containing 1) | -1.49 |
| UBIAD1 (UbiA prenyltransferase domain containing 1) | -0.21 |
| UBIAD1 (UbiA prenyltransferase domain containing 1) | -0.85 |
| UBIAD1 (UbiA prenyltransferase domain containing 1) | -0.09 |
| LDHD (lactate dehydrogenase D) | -0.15 |
| LDHD (lactate dehydrogenase D) | 0.85 |
| LDHD (lactate dehydrogenase D) | -0.21 |
| LDHD (lactate dehydrogenase D) | -0.4 |
| MCM3 (minichromosome maintenance complex component 3) | -0.61 |
| MCM3 (minichromosome maintenance complex component 3) | -0.36 |
| MCM3 (minichromosome maintenance complex component 3) | -0.59 |
| MCM3 (minichromosome maintenance complex component 3) | -0.87 |
| BTBD2 (BTB domain containing 2) | 0.39 |
| BTBD2 (BTB domain containing 2) | 0.3 |
| BTBD2 (BTB domain containing 2) | -0.12 |
| BTBD2 (BTB domain containing 2) | 0.45 |
| RALGDS (ral guanine nucleotide dissociation stimulator) | 1.99 |
| RALGDS (ral guanine nucleotide dissociation stimulator) | 0.85 |
| RALGDS (ral guanine nucleotide dissociation stimulator) | -0.95 |
| RALGDS (ral guanine nucleotide dissociation stimulator) | -1.37 |
| OVCA2 (OVCA2 serine hydrolase domain containing) | -0.45 |
| OVCA2 (OVCA2 serine hydrolase domain containing) | 4.25 (active) |
| OVCA2 (OVCA2 serine hydrolase domain containing) | -1.09 |
| OVCA2 (OVCA2 serine hydrolase domain containing) | -0.38 |
| PHF14 (PHD finger protein 14) | 0.8 |
| PHF14 (PHD finger protein 14) | -0.35 |
| PHF14 (PHD finger protein 14) | -1.74 (active) |
| PHF14 (PHD finger protein 14) | 0.5 |
| AOC1 (amine oxidase copper containing 1) | -0.77 |
| AOC1 (amine oxidase copper containing 1) | -0.73 |
| AOC1 (amine oxidase copper containing 1) | -0.86 |
| AOC1 (amine oxidase copper containing 1) | -0.09 |
| TAP2 (transporter 2, ATP binding cassette subfamily B member) | 0.77 |
| TAP2 (transporter 2, ATP binding cassette subfamily B member) | -0.15 |
| TAP2 (transporter 2, ATP binding cassette subfamily B member) | 0.16 |
| TAP2 (transporter 2, ATP binding cassette subfamily B member) | 1.25 |
| OR6S1 (olfactory receptor family 6 subfamily S member 1) | 0.8 |
| OR6S1 (olfactory receptor family 6 subfamily S member 1) | 1.47 |
| OR6S1 (olfactory receptor family 6 subfamily S member 1) | 1.56 |
| UCK2 (uridine-cytidine kinase 2) | 0.19 |
| UCK2 (uridine-cytidine kinase 2) | -1.02 |
| UCK2 (uridine-cytidine kinase 2) | -0.47 |
| UCK2 (uridine-cytidine kinase 2) | -0.26 |
| LTBP2 (latent transforming growth factor beta binding protein 2) | -0.39 |
| LTBP2 (latent transforming growth factor beta binding protein 2) | 0.59 |
| LTBP2 (latent transforming growth factor beta binding protein 2) | -0.18 |
| IRF5 (interferon regulatory factor 5) | -0.86 |
| IRF5 (interferon regulatory factor 5) | -0.22 |
| IRF5 (interferon regulatory factor 5) | -0.6 |
| IRF5 (interferon regulatory factor 5) | -0.19 |
| NBPF3 (NBPF member 3) | -0.87 |
| NBPF3 (NBPF member 3) | -1.57 (active) |
| NBPF3 (NBPF member 3) | -0.94 |
| NBPF3 (NBPF member 3) | -0.47 |
| TM7SF2 (transmembrane 7 superfamily member 2) | -0.64 |
| TM7SF2 (transmembrane 7 superfamily member 2) | -0.07 |
| TM7SF2 (transmembrane 7 superfamily member 2) | -0.44 |
| TM7SF2 (transmembrane 7 superfamily member 2) | 0.58 |
| METTL16 (methyltransferase 16, RNA N6-adenosine) | -0.34 |
| METTL16 (methyltransferase 16, RNA N6-adenosine) | 0.06 |
| METTL16 (methyltransferase 16, RNA N6-adenosine) | -0.21 |
| METTL16 (methyltransferase 16, RNA N6-adenosine) | -0.12 |
| HOXC4 (homeobox C4) | 1.1 |
| HOXC4 (homeobox C4) | 1.3 |
| HOXC4 (homeobox C4) | -0.41 |
| HOXC4 (homeobox C4) | 1.33 |

Entries listed so far whose gene name begins with A or a:
| target gene | TNF reporter robust z-score |
| --- | --- |
| AOC1 (amine oxidase copper containing 1) | -0.77 |
| AOC1 (amine oxidase copper containing 1) | -0.73 |
| AOC1 (amine oxidase copper containing 1) | -0.86 |
| AOC1 (amine oxidase copper containing 1) | -0.09 |
